{"source": "patent US20250332170A1", "about": "“VANDETANIB REDUCES INFLAMMATORY CYTOKINES AND AMELIORATES COVID-19” (Collaborations Pharmaceuticals, Inc., priority 2021, published 2025)", "system": "murine hepatitis virus (MHV)", "assay": "microbe, parasite or virus in culture", "assay_type": "cell-based", "settings": "Murine coronavirus, read-out: % Inhibition MHV-DBT cells 10 μM", "data": [{"smiles": "CNC(=O)c1ccccc1Sc1ccc2c(/C=C/c3ccccn3)n[nH]c2c1", "note": "[Axitinib]", "values": [{"measurement": "inhibition at 10 µM", "result": 35, "unit": "%"}]}]}
